Data published in patent US10633353B2, “Polymerizable compound, composition, polymer, optically anisotropic body, liquid crystal display element, and organic EL display” (DIC Corporation, priority 2014, dated 2020).

Columns and labels:
[1] = Alignment property of the optical film
[2] = Optical property of the optical film (retardation, Re(450)/Re(550)); settings: Re(450)/Re(550) of the optical film, RET-100

SMILES | alignment property ([1]; summary in words) | Optical property [2] | alignment property ([1]; optical film, visual inspection and polarized light microscope)
C=CC(=O)OCCCCCCOc1ccc(C(=O)Oc2ccc(-c3ccc(OC(=O)c4ccc(OCCCCCCOC(=O)C=C)cc4)cc3C=NN=C3c4ccccc4-c4ccccc43)cc2)cc1 [1-hk-86] | good | A (Re(450)/Re(550)≤0.85) | –
C=CC(=O)OCCCCCCOc1ccc(C(=O)Oc2ccc(-c3ccc(OC(=O)c4ccc(OCCCCCCOC(=O)C=C)cc4)c(/C=N/Nc4nc5ccccc5s4)c3)cc2)cc1 [1-hk-84] | good | A (Re(450)/Re(550)≤0.85) | –
C=CC(=O)OCCCCCCOc1ccc(C(=O)Oc2ccc(-c3ccc(OC(=O)c4ccc(OCCCCCCOC(=O)C=C)cc4)cc3/C=N/Nc3nc4ccccc4s3)cc2)cc1 [1-hk-85] | good | A (Re(450)/Re(550)≤0.85) | –
C=CC(=O)OCCCCCCOc1ccc(C(=O)Oc2ccc(C(=O)Oc3ccc(OCCCCCCOC(=O)C=C)cc3/C=N/Nc3nc4ccccc4s3)cc2)cc1 [1-eh-72] | improved | A (Re(450)/Re(550)≤0.85) | –
C=CC(=O)OCCCCCCOc1ccc(OC(=O)C2CCC(C(=O)Oc3ccc(OC(=O)C4CCC(C(=O)Oc5ccc(OCCCCCCOC(=O)C=C)cc5)CC4)c4c3SC(=C(C#N)C#N)S4)CC2)cc1 (stereo not shown) [r-2, reference compound] | – | C (0.95<Re(450)/Re(550)≤1.05) | C (Although the degree of the orientation of the optical film which was visually confirmed was lower than those defined in A and B, the inspection of the optical film with a polarized light microscope confirmed that the orientation area was 60% to 90%.)
